Results taken from patent US20160222124A1.
These are yes or no findings as the source states them, for the method shown. Some entries that bind do so weakly or less than the wild type.

Columns and labels:
[1] = molecular target: cynomolgus monkey CD40 (cynomolgus monkey) (UniProt G7PG38); assay: flow cytometry, FITC-labeled antibody on cynomolgus platelets
[2] = molecular target: cynomolgus monkey CD40 (cynomolgus monkey) (UniProt G7PG38); assay: flow cytometry, directly labeled antibody, B cells and platelets in cynomolgus monkey whole blood

B1: 2H11 (murine anti-CD40 antibody) (antibody, V domains shown)
VH: EVQLQQSGAELVRPGASVKLSCTASGFNIKDYYVHWVKQRPEKGLEWIGRIDPEDGDSKYAPKFQGKATMTADTSSNTAYLHLSSLTSEDTAVYYCTTSYYVGTYGYWGQGTTLTVSS
VL: QIVLTQSPAIMSASPGEKVTITCSASSSVSYMLWFQQKPGTSPKLWIYSTSNLASGVPARFGGSGSGTSYSLTISRMEAEDAATYYCQQRTFYPYTFGGGTKLEIK
binding [1]: binds

B2: Antibody B (antibody, V domains shown)
VH: EVQLVESGGGLVKPGGSLRLSCAASGFTFSDYGMHWVRQAPGKGLEWVAYISSGNRIIYYADTVKGRFTISRDNAKNSLYLQMNSLRAEDTAVYYCARQDGYRYAMDYWGQGTLVTVSS
VL: DIVMTQSPDSLAVSLGEKVTINCKSSQSLLNSGNQKNYLTWHQQKPGQPPKLLIYWTSTRESGVPDRFSGSGSGTDFTLTISSLQAEDVAVYYCQNDYTYPLTFGGGTKVEIKR
binding [2]: binds
